Experimental data reported in article PMC9266449, “Dried Blood Spots as Matrix for Evaluation of Valproate Levels and the Immediate and Delayed Metabolomic Changes Induced by Single Valproate Dose Treatment” (International Journal of Molecular Sciences, 2022).
“Also recorded” adds a separate entry of the source.

System: Sprague-Dawley rats
Assay: GC/MS metabolomic profiling of DBS after single VPA dose
Assay type: in vivo
Conditions: iv 200 mg/kg, male rats

## CCCC(CCC)C(=O)O [VPA, 2-propyl-pentanoic acid]
0.5 h post-VPA treatment
  Change in 2-hydroxybutyric acid level in DBS versus control: significantly increased
2.5 h post-VPA treatment
  Change in pipecolic acid level in DBS versus control: downregulated
5 h post-VPA treatment, 200 mg/kg
  Change in tetratriacontane level in DBS versus control: upregulated; also recorded: increment
5 h to 8 h post-VPA treatment, 200 mg/kg
  Change in stearic acid level in DBS versus control: upregulated; also recorded: increment
